These are yes or no findings as the source states them, for the method shown. Some entries that bind do so weakly or less than the wild type. Sequences can lack the tags named with a protein.

The chains behind the UniProt entries cited, without tags or fusion partners. Residues count along the entry.
UniProt P01589, residues 22-272: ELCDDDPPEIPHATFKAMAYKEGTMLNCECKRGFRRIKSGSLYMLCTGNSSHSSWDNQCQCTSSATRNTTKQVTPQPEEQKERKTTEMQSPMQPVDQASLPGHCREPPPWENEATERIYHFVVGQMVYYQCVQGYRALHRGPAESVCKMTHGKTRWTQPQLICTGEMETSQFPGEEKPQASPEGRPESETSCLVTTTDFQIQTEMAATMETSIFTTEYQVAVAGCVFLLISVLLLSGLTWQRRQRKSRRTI

Results on 1 molecule are retold here after patent US20210139554A1.

This experiment deals with CD25 (IL-2Rα) on the surface of activated T cells (human) (UniProt P01589). As to the kind of experiment: binding to cell surface CD25.

B1: IL-2 mutein haD5 fused to the amino terminus of Fc, separated by a GGGGS linker (Fc fusion, not shown: a dimerising Fc or GST)
chain: APTSSSTKKTQLQLQNLLLDLQMILNGISNHKNPRLARMLTFKFYMPEKATELKHLQCLEEELKPLEEALRLAPSKNFHLRPRDLISDINVIVLELKGSETTFMCEYADETATIVEFLNRWITFSQSIISTLTGGGGS
For the molecule B1, the binding entry is on record as “binds”.
